Among the data in publication PMC8233271 are binding values, retold here.

In this assay the target is Cyclic GMP-dependent protein kinase (PKG), in H9C2 cells (co-IP). The experiment in a line: co-IP; H9C2 cells overexpressing PKG and cCbl, synthetic TAG-23 peptide added to the cells; loss of cCbl from the PKG precipitate as read-out of competition; only the binder purified.

Results are given in words; binding and its absence hold for the method and conditions named. In cells and extracts the contact can be indirect. Binding calls can cover weak binding; strength is not graded here. Tags and fused reporters may be left off the sequences shown.

As for MGSNRGASQAGMTGYGRPRQIIS [TAG-23 peptide], the binding entry is given as “binds”.
